Results reported in the supplement of paper PMC3334620.
Over roughly 33,000 sequences, “E-score (-0.5 to 0.5)” has its median near -0.0014; the highest 2% begin near 0.25. The list shows a part of the results.

target: T1, Cad1 (UniProt P24813); test: PBM E-score (8-mer binding enrichment) (E-score (-0.5 to 0.5)); higher = stronger / more preferred TF binding; settings: protein concentration: 100 nM; construct: GST-full length
T1 sequence: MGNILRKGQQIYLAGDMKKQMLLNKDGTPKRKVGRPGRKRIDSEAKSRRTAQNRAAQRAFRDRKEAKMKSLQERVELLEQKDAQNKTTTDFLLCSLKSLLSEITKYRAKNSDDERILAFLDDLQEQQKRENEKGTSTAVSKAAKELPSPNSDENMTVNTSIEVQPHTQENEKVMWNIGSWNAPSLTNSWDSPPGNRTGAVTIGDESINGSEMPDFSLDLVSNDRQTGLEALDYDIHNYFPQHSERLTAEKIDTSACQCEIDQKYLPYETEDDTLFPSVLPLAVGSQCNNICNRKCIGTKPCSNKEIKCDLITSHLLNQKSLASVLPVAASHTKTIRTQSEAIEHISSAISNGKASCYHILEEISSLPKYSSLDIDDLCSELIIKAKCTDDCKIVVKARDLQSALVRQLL
Method in brief: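 Universal all-10-mer Agilent arrays, fresh or stripped once, were converted to double-stranded form by primer extension. GST-tagged yeast transcription factors from PURExpress in vitro transcription/translation, full-length or DNA-binding domain only, were applied at about 100-200 nM and detected with fluorescent anti-GST. After masliner normalisation, the Universal PBM Analysis Suite scored each ungapped eight-base word together with its reverse complement by E-score.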

| Sequence | PBM E-score |
| --- | --- |
| CCCTTGTA | -0.211 |
| GCATGCCC | 0.109 |
| AAAAGGAG | -0.234 |
| GGGTTGAC | -0.148 |
| AGACGACG | -0.0598 |
| ATCCAGTA | -0.0384 |
| AATTTTTG | 0.082 |
| AATCGTGG | 0.163 |
| CCCTCACG | -0.0732 |
| GCCCATCA | -0.129 |
| AGACCTTC | -0.149 |
| CATCTTCA | -0.249 |
| CAGAGATG | -0.0243 |
| CCTGACTC | -0.139 |
| CCCAAGAC | 0.0763 |
| CTCTCGCA | -0.272 |
| AACTGAAA | 0.149 |
| GCGATCCC | -0.162 |
| GCGCCCGC | -0.125 |
| TCAATTGA | 0.0289 |
| CATCGGTC | -0.0321 |
| CCAGCGCG | -0.015 |
| GCAAGAAC | 0.0479 |
| CTTGTCGC | -0.136 |
| TATCGAAA | 0.155 |

| Sequence | PBM E-score |
| --- | --- |
| TACGCATA | 0.136 |
| AACTAAAG | 0.2 |
| AGGGAACA | -0.021 |
| ACTGAGAT | 0.0263 |
| ATCAAGGG | 0.0452 |
| AAATATGG | -0.00169 |
| CTTGGGCC | -0.279 |
| CGAGCACC | -0.163 |
| ACGACGAT | -0.0571 |
| CAGGATTA | 0.192 |
| GTATCAAC | -0.0681 |
| ACTGGCAA | -0.0398 |
| ACCGTAAA | 0.0475 |
| AAATGTGG | 0.0872 |
| GCGCAAAA | 0.241 |
| AAACGTAT | 0.134 |
| GGACCCCC | -0.361 |
| GAGCGCGC | 0.186 |
| AAGTTCAT | 0.0937 |
| CACGTTGC | -0.135 |
| AGGGAGTA | -0.0843 |
| AGGCGGCC | -0.121 |
| AGGTCGAC | 0.156 |
| ACTTGCAC | 0.0617 |
| AGACCACC | -0.0828 |

| Sequence | PBM E-score |
| --- | --- |
| TATACGAA | 0.173 |
| GGCCAACC | -0.0465 |
| AATTCCAC | 0.111 |
| ACACTCCT | -0.137 |
| AATGATAA | 0.202 |
| ATCGACGC | 0.104 |
| CCTTAGCA | -0.06 |
| AGAACTGA | 0.164 |
| GCGATACC | -0.081 |
| TCTGGCCA | 0.129 |
| ATGGGGCG | -0.0183 |
| GGATTAAA | 0.0722 |
| GCGGTTGA | 0.101 |
| ATTTAGTA | 0.293 |
| GGCCAGAC | 0.179 |
| CGTGGTTA | 0.0164 |
| CCGCCTTA | -0.0422 |
| CCGCACGG | -0.0623 |
| ACAATGCA | 0.151 |
| CAGGTTGG | 0.0251 |
| CGAAAGCC | -0.327 |
| ATGTTCAA | -0.0453 |
| AGATTCCA | 0.217 |
| AAGTTCCT | 0.0701 |
| AGTACTAA | 0.0541 |

| Sequence | PBM E-score |
| --- | --- |
| AAGACACG | 0.0251 |
| AGTCCGTC | 0.082 |
| ACTGTTGA | -0.0584 |
| AGTATCTG | -0.0638 |
| ACGATGCA | 0.0623 |
| ATAGTAGA | 0.0175 |
| GAGGTATA | 0.0423 |
| TATATGAA | 0.196 |
| ATGTATGG | -0.0491 |
| CCCCTGAA | -0.0144 |
| AGACCCCC | -0.362 |
| ATCTATTA | 0.107 |
| AGCGCGGA | 0.149 |
| CTTTGCCC | -0.152 |
| ACGCACTA | -0.0965 |
| GCTAGTTA | -0.105 |
| AGCACGAT | 0.0518 |
| CCTTCAAG | -0.121 |
| AAGGGTAG | -0.133 |
| CATCCAAG | -0.121 |
| ACGAGCCC | -0.201 |
| GCAGAATA | 0.096 |
| CAACTCAC | 0.133 |
| ATACGGGC | -0.144 |
| CAGTCTGG | -0.134 |

| Sequence | PBM E-score |
| --- | --- |
| AGGATATG | 0.0939 |
| ATTCTATG | 0.0831 |
| ATACCGAA | 0.133 |
| TGAACAAA | 0.165 |
| AGCGCGTG | 0.0725 |
| GCGGAGAC | 0.267 |
| GCCTAAAC | 0.00973 |
| ATGGCCGA | 0.00947 |
| GGCGGCAA | 0.115 |
| TCGGGTAA | -0.0573 |
| CGGCCTGC | -0.14 |
| AGTAGTGC | -0.0238 |
| GCGAAGAA | 0.125 |
| GTGTCCTA | 0.0865 |
| CGGAAGCC | -0.125 |
| AGTGGCGA | 0.106 |
| GCAACATA | -0.061 |
| GTGTCTGA | 0.109 |
| TGACACCA | -0.071 |
| ATTCCACG | -0.0585 |
| AACTTGGA | -0.0298 |
| AGGCCCAC | -0.309 |
| AAGCCGAC | 0.0245 |
| CGTTCAGC | 0.165 |
| GAATACGC | 0.131 |

Quoted from above (5 entries):

| Sequence | PBM E-score |
| --- | --- |
| AGCGCGTG | 0.0725 |
| GCGGAGAC | 0.267 |
| GCCTAAAC | 0.00973 |
| ATGGCCGA | 0.00947 |
| GGCGGCAA | 0.115 |

Following part.

| Sequence | PBM E-score |
| --- | --- |
| ACCGTCAA | 0.0801 |
| CCACCTCC | -0.237 |
| ACTTCCGA | 0.0194 |
| AGGGCGAC | -0.112 |
| AACCGCGA | 0.287 |
| CGTCATAG | -0.114 |
| GAACATAA | 0.111 |
| TCACCGCA | -0.0361 |
| CCAGCTGG | 0.0803 |
| GGGATGAC | -0.0998 |
| ACGCTGAG | 0.00501 |
| ACTCACCA | -0.0208 |
| TAATGGAA | 0.143 |
| CGAATCAC | 0.169 |
| AAAATACC | 0.203 |
| AAGACCCC | -0.206 |
| AATCAACC | -0.00133 |
| AGAAGTGC | -0.142 |
| AGCAAGCT | -0.239 |
| GTGTTCTA | 0.113 |
| ACGGCGTA | 0.0105 |
| ATTTGAGA | 0.0291 |
| AAGGAACC | 0.219 |
| AAAAGTAT | 0.0548 |
| CTAAGAGC | -0.119 |

Quoted at random: two records from the list

| Sequence | PBM E-score |
| --- | --- |
| CCACCTCC | -0.237 |
| GGGATGAC | -0.0998 |

(next part)

| Sequence | PBM E-score |
| --- | --- |
| AACCTCGA | 0.0882 |
| CTAAATTC | -0.0152 |
| CGGTTCAC | -0.109 |
| TCCGCACA | -0.0175 |
| ATAAAAAA | 0.148 |
| CGTGGCGA | 0.0504 |
| AACGTTAG | 0.047 |
| GGGTACTA | 0.0733 |
| CACTCCTA | -0.141 |
| ATGAGGTA | -0.02 |
| GACTAAGA | 0.0179 |
| AAGACGTA | 0.0444 |
| AAGCGGAT | 0.0466 |
| ATCAGTTA | 0.212 |
| AGGTGGAT | -0.0872 |
| ACGATGAT | -0.138 |
| CTTTTCTA | -0.221 |
| CGATCCAG | -0.0727 |
| GTTCGGCA | 0.0445 |
| CTTCTAAA | -0.0456 |
| TAGACTGA | -0.0281 |
| ATGTGTGA | -0.0819 |
